Literature values as cited in US20050020668A1, “Combination comprising S-[2-([[1-(2-ethylbutyl)cyclohexyl] carbonyl]amino)phenyl] 2-methylpropanethioate and an HMG CoA reductase inhibitor” (Japan Tobacco Inc., priority 2003, published 2005).
At least one structure is not confirmed: it was looked up by name or label, or the drawing left a doubt.

Tests used:
rabbits = details: Okamoto et al., cited from earlier work
humans = details: de Grooth et al.; cited from earlier work

## CCC(CC)CC1(C(=O)Nc2ccccc2SC(=O)C(C)C)CCCCC1 [Compound I, S-[2-([[1-(2-ethylbutyl)cyclohexyl]carbonyl]amino)phenyl]2-methylpropanethioate]
rabbits
  Effect on LDL cholesterol: decrease LDL cholesterol
rabbits; Shinkai et al., Kobayashi et al.
  Effect on plasma HDL cholesterol: increase plasma HDL cholesterol
humans
  Effect on LDL cholesterol: decrease LDL cholesterol
  Effect on plasma HDL cholesterol: increase plasma HDL cholesterol
